Laboratory results as given in US11466070B2, “Signalling system” (AUTOLUS LIMITED, priority 2016, dated 2022).
For at least one compound, name, drawing or mass did not settle the structure.

Test system: Primary human T-cells
Test: Interferon-gamma release (ELISA) from CAR-transduced primary T-cells challenged with SupT1.CD19 cells
Assay type: cell-based
Conditions: TetCAR T-cells challenged 1:1 with SupT1.CD19 cells, 48 hours

Compound: CN(C)[C@@H]1C(O)=C(C(N)=O)C(=O)[C@@]2(O)C(O)=C3C(=O)c4c(O)cccc4[C@@](C)(O)[C@H]3C[C@@H]12 [tetracycline]
- effect of tetracycline on activation of TetCAR T-cells (interferon-gamma): inhibited
